Measured values published in the supplement of paper PMC10849652.
The list shows a part of the results.

Sequences of proteins named here, by UniProt entry; tags and fusion partners are left off. A change or cut given only in a name is not applied to a line headed by its entry.
UniProt Q8WVQ1: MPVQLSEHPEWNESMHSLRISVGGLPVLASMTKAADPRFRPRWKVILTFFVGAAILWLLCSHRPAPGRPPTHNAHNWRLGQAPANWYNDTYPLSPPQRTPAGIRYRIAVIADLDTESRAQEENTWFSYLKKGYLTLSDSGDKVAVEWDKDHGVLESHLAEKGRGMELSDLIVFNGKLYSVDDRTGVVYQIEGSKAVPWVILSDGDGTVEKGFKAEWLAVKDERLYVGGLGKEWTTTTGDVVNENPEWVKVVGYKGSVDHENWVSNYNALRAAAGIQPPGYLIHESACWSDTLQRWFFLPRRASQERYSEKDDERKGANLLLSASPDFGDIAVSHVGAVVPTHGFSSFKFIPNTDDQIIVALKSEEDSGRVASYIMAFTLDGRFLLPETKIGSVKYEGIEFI
UniProt P27797, whole entry, looked up: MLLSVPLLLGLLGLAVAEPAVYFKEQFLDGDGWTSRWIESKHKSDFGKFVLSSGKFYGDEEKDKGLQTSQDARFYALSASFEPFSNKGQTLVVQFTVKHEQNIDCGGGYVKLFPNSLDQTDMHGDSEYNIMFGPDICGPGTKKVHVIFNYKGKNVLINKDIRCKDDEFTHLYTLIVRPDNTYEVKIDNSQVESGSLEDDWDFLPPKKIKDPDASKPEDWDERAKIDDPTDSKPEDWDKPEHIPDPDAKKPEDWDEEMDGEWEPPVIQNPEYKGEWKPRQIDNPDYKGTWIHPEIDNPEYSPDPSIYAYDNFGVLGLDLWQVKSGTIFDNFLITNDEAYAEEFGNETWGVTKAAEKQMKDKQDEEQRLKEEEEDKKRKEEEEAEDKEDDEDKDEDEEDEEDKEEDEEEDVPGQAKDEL
UniProt Q96LW7: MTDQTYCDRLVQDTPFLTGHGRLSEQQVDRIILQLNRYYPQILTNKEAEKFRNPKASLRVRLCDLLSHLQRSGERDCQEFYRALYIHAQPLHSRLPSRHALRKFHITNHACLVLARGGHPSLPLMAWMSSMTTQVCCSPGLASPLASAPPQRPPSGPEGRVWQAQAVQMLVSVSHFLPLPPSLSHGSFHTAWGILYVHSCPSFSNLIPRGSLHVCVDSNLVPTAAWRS
UniProt Q6P1X6: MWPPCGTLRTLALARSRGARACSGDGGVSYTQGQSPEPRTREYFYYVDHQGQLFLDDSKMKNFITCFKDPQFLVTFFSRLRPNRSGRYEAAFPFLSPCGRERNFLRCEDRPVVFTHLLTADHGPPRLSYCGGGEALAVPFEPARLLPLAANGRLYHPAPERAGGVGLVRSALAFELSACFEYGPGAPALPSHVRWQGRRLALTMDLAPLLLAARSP
UniProt O43852: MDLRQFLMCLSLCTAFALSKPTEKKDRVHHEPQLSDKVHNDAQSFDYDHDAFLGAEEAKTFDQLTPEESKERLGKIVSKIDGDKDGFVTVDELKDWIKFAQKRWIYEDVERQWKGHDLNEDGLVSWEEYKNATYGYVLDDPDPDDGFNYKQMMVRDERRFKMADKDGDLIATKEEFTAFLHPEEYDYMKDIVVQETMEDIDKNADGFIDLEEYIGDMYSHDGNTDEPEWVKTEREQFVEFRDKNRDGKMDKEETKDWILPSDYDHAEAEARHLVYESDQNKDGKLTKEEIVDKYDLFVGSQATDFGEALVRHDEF
UniProt Q8IXQ3: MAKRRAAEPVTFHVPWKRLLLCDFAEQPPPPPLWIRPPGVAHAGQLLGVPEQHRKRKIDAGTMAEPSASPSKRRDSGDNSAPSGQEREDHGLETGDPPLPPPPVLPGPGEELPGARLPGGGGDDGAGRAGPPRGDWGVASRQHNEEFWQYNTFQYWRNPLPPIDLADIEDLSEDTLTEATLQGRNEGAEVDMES
UniProt Q6ZSJ8: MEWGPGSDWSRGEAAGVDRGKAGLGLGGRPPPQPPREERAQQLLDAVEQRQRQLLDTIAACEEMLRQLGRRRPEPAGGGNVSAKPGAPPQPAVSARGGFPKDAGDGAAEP
UniProt P47756, whole entry, looked up: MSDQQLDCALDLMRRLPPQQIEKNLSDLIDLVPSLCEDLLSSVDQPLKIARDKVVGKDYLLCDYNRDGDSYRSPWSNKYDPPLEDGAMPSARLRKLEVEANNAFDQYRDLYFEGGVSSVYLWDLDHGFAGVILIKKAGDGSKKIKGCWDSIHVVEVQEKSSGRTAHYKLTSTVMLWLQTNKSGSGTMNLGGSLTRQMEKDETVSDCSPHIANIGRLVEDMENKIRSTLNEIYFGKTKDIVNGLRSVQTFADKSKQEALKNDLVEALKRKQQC
UniProt P04632: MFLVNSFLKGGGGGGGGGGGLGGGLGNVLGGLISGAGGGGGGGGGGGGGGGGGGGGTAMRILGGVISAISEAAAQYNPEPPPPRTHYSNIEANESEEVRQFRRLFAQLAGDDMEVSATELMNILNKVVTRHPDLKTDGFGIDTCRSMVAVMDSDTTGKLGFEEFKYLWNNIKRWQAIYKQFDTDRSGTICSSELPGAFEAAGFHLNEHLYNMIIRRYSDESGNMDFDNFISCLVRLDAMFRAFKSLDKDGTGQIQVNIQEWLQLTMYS
UniProt Q96K31: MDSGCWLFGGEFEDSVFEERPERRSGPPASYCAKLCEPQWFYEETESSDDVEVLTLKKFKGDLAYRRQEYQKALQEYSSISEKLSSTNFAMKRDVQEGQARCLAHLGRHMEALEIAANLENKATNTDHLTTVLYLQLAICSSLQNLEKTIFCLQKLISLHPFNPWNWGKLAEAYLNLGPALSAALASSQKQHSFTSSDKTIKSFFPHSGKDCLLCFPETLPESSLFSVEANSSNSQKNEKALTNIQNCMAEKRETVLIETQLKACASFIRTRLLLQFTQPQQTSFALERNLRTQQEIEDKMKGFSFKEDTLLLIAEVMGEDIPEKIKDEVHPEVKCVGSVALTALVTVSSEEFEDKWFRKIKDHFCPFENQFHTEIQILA
UniProt Q8WUQ7: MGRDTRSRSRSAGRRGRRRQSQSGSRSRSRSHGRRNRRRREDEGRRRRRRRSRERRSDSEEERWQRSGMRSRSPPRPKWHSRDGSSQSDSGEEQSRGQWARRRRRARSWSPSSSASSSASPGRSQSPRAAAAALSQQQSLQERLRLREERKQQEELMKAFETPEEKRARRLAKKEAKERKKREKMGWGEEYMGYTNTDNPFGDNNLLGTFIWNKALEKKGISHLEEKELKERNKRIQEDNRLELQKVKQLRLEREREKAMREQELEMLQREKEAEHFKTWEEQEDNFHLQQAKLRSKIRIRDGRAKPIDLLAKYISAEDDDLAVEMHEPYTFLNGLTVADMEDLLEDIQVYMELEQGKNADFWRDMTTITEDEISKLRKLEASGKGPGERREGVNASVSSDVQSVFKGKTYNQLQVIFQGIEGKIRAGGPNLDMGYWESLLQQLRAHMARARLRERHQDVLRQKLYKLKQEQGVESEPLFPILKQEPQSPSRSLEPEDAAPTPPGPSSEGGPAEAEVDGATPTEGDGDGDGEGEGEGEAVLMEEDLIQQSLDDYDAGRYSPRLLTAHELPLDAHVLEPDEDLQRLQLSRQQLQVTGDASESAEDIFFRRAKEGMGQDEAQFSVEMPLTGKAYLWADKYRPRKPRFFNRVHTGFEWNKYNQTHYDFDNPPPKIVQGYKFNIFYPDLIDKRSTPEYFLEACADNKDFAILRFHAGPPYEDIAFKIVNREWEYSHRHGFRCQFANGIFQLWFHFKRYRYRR
UniProt Q9H3J6: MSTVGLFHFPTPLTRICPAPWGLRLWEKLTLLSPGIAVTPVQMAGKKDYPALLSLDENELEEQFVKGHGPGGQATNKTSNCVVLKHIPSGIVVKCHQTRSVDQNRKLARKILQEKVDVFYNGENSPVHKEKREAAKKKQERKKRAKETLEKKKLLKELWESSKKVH
UniProt Q14012: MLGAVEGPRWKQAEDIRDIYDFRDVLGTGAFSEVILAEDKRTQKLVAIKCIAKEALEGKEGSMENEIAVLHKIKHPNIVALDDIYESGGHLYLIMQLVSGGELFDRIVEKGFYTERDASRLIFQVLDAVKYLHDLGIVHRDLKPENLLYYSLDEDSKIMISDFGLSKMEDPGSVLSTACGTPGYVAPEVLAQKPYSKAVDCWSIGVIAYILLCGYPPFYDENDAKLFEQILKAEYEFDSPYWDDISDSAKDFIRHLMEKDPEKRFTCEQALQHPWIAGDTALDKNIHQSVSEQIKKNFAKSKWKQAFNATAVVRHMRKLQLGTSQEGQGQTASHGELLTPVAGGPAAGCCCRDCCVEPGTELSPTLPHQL
UniProt Q9BSU1: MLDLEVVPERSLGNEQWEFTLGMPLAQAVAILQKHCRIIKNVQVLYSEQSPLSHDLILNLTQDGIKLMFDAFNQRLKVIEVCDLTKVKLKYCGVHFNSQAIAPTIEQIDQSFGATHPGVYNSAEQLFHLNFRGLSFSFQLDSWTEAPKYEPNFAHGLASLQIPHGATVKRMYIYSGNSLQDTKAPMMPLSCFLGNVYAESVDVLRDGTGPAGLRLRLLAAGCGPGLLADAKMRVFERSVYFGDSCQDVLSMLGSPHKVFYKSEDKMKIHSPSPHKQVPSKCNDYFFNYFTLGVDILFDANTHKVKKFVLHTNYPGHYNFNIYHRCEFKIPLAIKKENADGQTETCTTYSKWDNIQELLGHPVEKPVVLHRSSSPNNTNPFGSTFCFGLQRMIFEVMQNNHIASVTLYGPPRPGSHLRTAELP
UniProt O75155: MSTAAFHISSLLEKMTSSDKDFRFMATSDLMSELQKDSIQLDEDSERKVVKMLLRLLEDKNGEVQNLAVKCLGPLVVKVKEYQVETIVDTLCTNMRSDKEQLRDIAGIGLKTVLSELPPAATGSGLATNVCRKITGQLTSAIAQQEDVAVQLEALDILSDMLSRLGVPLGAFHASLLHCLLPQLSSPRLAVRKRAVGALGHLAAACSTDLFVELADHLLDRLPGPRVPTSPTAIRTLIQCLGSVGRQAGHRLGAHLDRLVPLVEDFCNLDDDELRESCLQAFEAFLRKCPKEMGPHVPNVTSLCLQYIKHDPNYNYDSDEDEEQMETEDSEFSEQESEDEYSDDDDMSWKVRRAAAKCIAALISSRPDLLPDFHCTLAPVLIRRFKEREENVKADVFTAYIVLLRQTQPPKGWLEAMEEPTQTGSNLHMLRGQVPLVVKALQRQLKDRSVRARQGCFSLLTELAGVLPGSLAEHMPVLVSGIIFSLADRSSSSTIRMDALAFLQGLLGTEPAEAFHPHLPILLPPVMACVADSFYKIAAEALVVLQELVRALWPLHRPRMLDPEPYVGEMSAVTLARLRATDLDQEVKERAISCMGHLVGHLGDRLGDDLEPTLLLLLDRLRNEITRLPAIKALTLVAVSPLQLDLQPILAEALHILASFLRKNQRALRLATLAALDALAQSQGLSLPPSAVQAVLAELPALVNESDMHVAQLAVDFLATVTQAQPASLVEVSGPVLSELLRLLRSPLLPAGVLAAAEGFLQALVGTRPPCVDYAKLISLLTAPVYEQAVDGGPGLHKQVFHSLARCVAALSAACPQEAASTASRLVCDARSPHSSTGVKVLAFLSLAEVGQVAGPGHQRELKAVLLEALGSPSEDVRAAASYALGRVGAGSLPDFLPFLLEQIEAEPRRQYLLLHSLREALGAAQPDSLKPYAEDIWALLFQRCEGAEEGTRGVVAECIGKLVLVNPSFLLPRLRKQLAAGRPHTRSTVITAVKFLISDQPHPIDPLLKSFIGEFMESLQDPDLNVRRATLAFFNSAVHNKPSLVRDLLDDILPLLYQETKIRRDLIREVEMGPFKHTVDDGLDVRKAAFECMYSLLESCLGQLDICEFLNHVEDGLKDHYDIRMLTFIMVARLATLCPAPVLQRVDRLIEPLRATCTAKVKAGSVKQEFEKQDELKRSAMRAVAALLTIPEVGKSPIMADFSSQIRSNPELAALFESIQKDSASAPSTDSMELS
UniProt Q8N8R5: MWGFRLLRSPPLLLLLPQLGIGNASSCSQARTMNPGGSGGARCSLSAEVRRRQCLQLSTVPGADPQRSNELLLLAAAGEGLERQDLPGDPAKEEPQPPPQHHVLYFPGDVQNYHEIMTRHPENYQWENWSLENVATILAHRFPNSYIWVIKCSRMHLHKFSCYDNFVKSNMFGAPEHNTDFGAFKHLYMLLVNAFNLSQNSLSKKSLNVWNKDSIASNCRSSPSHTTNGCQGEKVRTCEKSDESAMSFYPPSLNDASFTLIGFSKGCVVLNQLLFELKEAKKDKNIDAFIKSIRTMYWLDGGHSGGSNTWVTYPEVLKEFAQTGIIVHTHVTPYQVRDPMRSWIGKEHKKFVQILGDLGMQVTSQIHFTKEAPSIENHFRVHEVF
UniProt Q9H425: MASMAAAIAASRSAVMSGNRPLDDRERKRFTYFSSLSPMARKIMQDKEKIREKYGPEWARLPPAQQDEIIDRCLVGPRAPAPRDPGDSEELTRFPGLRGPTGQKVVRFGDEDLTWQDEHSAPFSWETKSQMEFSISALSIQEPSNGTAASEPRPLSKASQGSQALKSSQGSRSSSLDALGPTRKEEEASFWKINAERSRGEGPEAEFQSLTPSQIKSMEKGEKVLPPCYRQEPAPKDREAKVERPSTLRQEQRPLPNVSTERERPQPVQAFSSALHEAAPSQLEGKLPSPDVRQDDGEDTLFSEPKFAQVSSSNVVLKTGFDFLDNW

compound: c1cn2cc(-c3ccc4cn[nH]c4c3)nc(Nc3ccc(N4CCOCC4)cc3)c2n1 [entospletinib]; assay: log2 fold change, soluble protein after heating vs DMSO (PISA); higher = thermal stabilisation; K562 cells, 10 uM, 30 min; active = over 0.2 and 3.5 SD of the protein, either way, in both replicates (recomputed)
Procedure, shortened: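 K562 cells at 2×10^6 cells/mL were treated for 30 min with 10 μM compound, and aliquots were heated for 3 min over 48°C-58°C before pooling. Extraction used PBS with 0.5% NP-40 at 4°C, and soluble protein was the supernatant after 21,000xg for 90 min, measured by TMTpro 16plex LC-MS/MS with channel sums equalised. Thermal stability values, relative to control samples and from duplicates, are log2 fold changes.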

log2 fold change, inactive:
C1GALT1 (UniProt Q9NS00) 0.036
CANT1 (UniProt Q8WVQ1) 0.049
CARHSP1 (UniProt Q9Y2V2) 0.085
CALR (UniProt P27797) 0.035
CARD19 isoform 2 (UniProt Q96LW7) 0.014
C8orf82 (UniProt Q6P1X6) -0.002
CALU isoform 4 (UniProt O43852) -0.001
C9orf40 (UniProt Q8IXQ3) 0.043
C1orf122 (UniProt Q6ZSJ8) -0.01
CAPZB isoform 2 (UniProt P47756) 0.053
CAPNS1 (UniProt P04632) -0.007
C8orf76 (UniProt Q96K31) -0.046
CACTIN isoform 2 (UniProt Q8WUQ7) 0.185
C12orf65 (UniProt Q9H3J6) 0.086
BTF3 (UniProt P20290) -0.012
CAMK1 (UniProt Q14012) 0.003
C3 (UniProt P01024) 0.223
C16orf70 (UniProt Q9BSU1) -0.013
CAND2 (UniProt O75155) -0.023
C1orf112 (UniProt Q9NSG2) -0.134
C2orf69 (UniProt Q8N8R5) -0.046
C1orf198 (UniProt Q9H425) 0.133

A stretch from the list above, for reference:
log2 fold change, inactive:
C8orf76 (UniProt Q96K31) -0.046
CACTIN isoform 2 (UniProt Q8WUQ7) 0.185
C12orf65 (UniProt Q9H3J6) 0.086
BTF3 (UniProt P20290) -0.012
